The values that follow come from patent EP2948433B1, “ATGLISTATIN AS LIPASE INHIBITOR” (Technische Universität Graz, priority 2013, dated 2014).

A short description of this data set: Inhibition of lipolysis in vivo, oral gavage in fasted mice, plasma parameters. Set-up: species or system C57BI/6J mice. To be noted: 200 µmol/kg oral gavage, after 8 h, mean ± S.D., n = 7. The protocol: • Figure 1. Structure of compounds 1 to 3 (reference) and compound 4 (atglistatin) and effect on ATGL activity. For determination of lipase activity, lysates of E. coli overexpressing recombinant strep-tagged ATGL and CGI-58 were incubated with a substrate containing radiolabeled [9,10-3H(N)]-triolein. Subsequently, FA were extracted and quantified by liquid scintillation counting. Lysates of cells expressing empty vector were set as blank. Inhibitors were solubilized in DMSO and added at the indicated concentrations. DMSO alone was used as negative control. (A) Structure and IC50 values of compounds 1-4. (B) Dose-dependent inhibition of ATGL in the presence of compound 3 and 4. […] (C) Lineweaver-Burk plots for kinetic analysis of ATGL inhibition. Experiments were performed at varying concentrations of substrate (0.05 - 3 mM) in presence and absence of compound 4 (Atglistatin). […] Data are presented as mean +/-S.D. of triplicate determinations. Data for compound 4 are representative for at least three independent experiments. • Figure 2. Selectivity of Atglistatin. Lipase activity of ATGL, HSL, lipoprotein lipase, and pancreatic lipase was determined using triolein as substrate. MGL activity was detected in the presence of rac-(1,3)-monooleoylglycerol as substrate. Inhibitors were solubilized in DMSO and added at the indicated concentrations. DMSO alone was used as negative control. (A) Dose-dependent inhibition of TG hydrolase activity in WAT lysates obtained from wild-type and ATGL-ko mice. (B) Inhibition of TG hydrolase activity in wild-type WAT lysates by Atglistatin (40 µM) and by the HSL inhibitor Hi 76-0079 (20 µM). (C) Effect of Atglistatin on murine MGL (purified from E. coli), and murine HSL (overexpressed in COS-7 lysates) activity. […] The release of FA (A) and glycerol (B) in the media was determined using commercial kits. […] At the indicated timepoints blood was taken retroorbitally and plasma parameters were measured using commercial kits. […] 8 h after gavage blood was taken retroorbitally and plasma parameters were measured using commercial kits. […]

Consider `CN(C)C(=O)Nc1cccc(-c2ccc(N(C)C)cc2)c1` [Atglistatin, atglistatin], for which the Glucose is recorded as 86.85 ± 12.19 mg/dL. Moreover, the CE (plasma (text: total cholesterol)) was determined as 3.12 ± 0.25 mmol/L. Also, where the note is “plasma”, the Insulin was 0.18 ± 0.07 ng/mL.
